Taken from: PubChem BioAssay AID1508588 (Peter MacCallum Cancer Centre, 2020)
Shown is one part, drawn at random, of about 18,000 reagents tested. 790 of all reagents (4.4%) were called active. 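Calls rest on a combination of fold-change classes in drug and vehicle arms, not all shown here.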 Unmarked entries are inactive.

Test: 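Knock-downs boosting vemurafenib effects on melanoma cell growth or lactate release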 (primary screen)
Cells: human WM266.4 melanoma cells (BRAF V600 mutant)
Knock-down reagent: siRNA pool against human genes, 40 nM
Time to read-out: 96 h from transfection to read-out
Treatment: vemurafenib 300 nM (about IC25), added 48 h after transfection, for 48 h; comparison arm got DMSO vehicle only
Measurement: 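Cell gain (DAPI nuclei at end minus before drug, mean of two replicates) and medium lactate by absorbance per cell, both as ratio to non-targeting siRNA, also grouped into fold-change classes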
Reading the numbers: cell gain with vemurafenib: higher = more cell gain than with non-targeting siRNA; lactate per cell with vemurafenib: higher = more lactate made per cell
Rule for the call: 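a knock-down counts as enhancing when its fold-change classes with vehicle and with vemurafenib, taken together, show a stronger drug effect on cell gain or lactate per cell; exact class pairs not stated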
Meaning of the calls: active = enhances vemurafenib effect; inactive = no enhancement seen

cell gain with vemurafenib	lactate per cell with vemurafenib	Target gene
0.44	1.74	ARHGAP5
0.73	0.95	TARP
0.56	0.8	GRID2
0.13	1.02	PRKCZ
0.11	1.52	ONECUT3
0.39	1.45	BBC3
0.84	0.5	GNAL
0.7	0.86	SERPINA1
0.23	0.84	MPDU1
0.85	1.02	RAB40C
0.47	0.2	CASP10
0.4	1.29	RETREG1
0.2	1.77	MOV10L1
0.69	0.74	MOGAT2
0.44	1.04	ERAP2
0.7	0.88	RTEL1
0.46	1.33	OLIG3
0.42	1.85	TMCC3
-0.08	0.84	ANKRD30A
0.56	0.74	SYNJ2
1.05	0.66	ELOVL4
0.49	1.37	ANGPTL7
0.89	0.61	AKAP5
0.91	1.36	DESI2
0.44	0.3	GINM1
0.77	0.44	CDA
0.78	1.05	PFDN2
0.52	0.42	EPN3
0.7	0.91	KCTD21
0.55	0.55	RAD54L2
0.02	1.53	POLR2C
0.19 (active)	1.08	PUM3
0.16 (active)	0.27	ZNF300
0.89	0.92	FRMPD4
0.48	1.45	MYORG
0.31	2.19	TAF8
1	1.04	BRF2
0.29	2.08	G6PD
1.02	0.63	CHKB
1.12	0.8	SYTL4
0.57	1.88	WFDC6
0.93	1.24	ATP5F1C
0.65	0.87	C16orf89
0.12	1.34	RBM12
0.21	1.39	CD68
0.89	0.73	PEX19
1.19	0.8	DPYSL4
0.02	3.38	IRS1
0.2	1.32	OR7A5
0.11	1.03	MICU1
0.72	1.58	WT1
0.62	1.32	TCL6
0.62	0.56	SNAPC2
0.62	0.88	HSD17B6
0.61 (active)	0.48	POLR3A
0.89	1.25	TLE1
0.37	0.73	NAIP
0.27	0.82	H2AC13
0.79	1.02	GAA
1.25	0.64	SNX16
0.44	1.44	RAB6B
0.39	1.6	SLC44A4
1.17	0.76	RIPOR3
0.53	1.26	TMPRSS6
0.13 (active)	0.55	SUPT5H
0.89	0.98	EFNA2
0.12	2.08	MAP3K11
0.62	0.42	SYT17
0.51	1.29	ORM2
0.32	1.54	MNX1
0.73	0.86	FBXO5
0.62	1.54	NDEL1
0.83	0.99	SRGAP2
0.18	2.17	ZNF699
1.13	0.85	RAB27A
1.08	0.46	AP1S3
0.69	0.52	HBZ
-0.02	1.65	RPL27A
0.81	0.94	E2F7
0.67	0.52	VMA22
-0.23	-0.43	SPANXA2
-0.01	1.48	PKP1
1.16	0.38	TMEM196
0.66	0.36	CLCNKB
0.71	0.72	ZC3HAV1
0.84	1.77	F2RL3
0.89	0.86	IL5
0.88	0.34	P4HA1
0.47	0.78	CLTRN
0.37	1.35	GMEB2
0.71	0.68	CERKL
0.78	0.68	COL4A6
0.97	0.85	CALCOCO2
1.13	0.6	KRTAP3-1
0.92	0.82	IFI27L1
0.34	1.12	NOL6
0.69	0.95	ZNF18
1.23	0.62	CCDC43
0.16 (active)	1.08	STRC
0.42	1.27	ARHGEF5
0.63	0.98	DEF8
0.54	0.57	CAST
0.3 (active)	0.66	KHDC4
0.28	1.84	TTC13
0.75	1.12	VPS26B
0.7	0.6	CRYGS
0.21	1.75	CRX
